# Values of other authors in patent US20210346288A1, “PHARMACEUTICAL FORMULATION CONTAINING ACTIVE METABOLITES OF REMDESIVIR FOR INHALATION” (priority 2020, published 2021).
# For at least one compound, name, drawing or mass did not settle the structure.
# System: RNA viruses
# Conditions: cited from earlier work
smiles,measurement,value
CCC(CC)COC(=O)[C@H](C)N[P@](=O)(OC[C@H]1O[C@@](C#N)(c2ccc3c(N)ncnn23)[C@H](O)[C@@H]1O)Oc1ccccc1 [Remdesivir],Antiviral activity,demonstrated activity
